No constants are given. Whether binding was seen depends on the method and setting. Some entries that bind do so weakly or less than the wild type.
What was measured:
[1] = target: human BMP9 (BMP9/Growth Differentiation Factor 2 [Homo sapiens], NP_057288) (human) (UniProt Q9UK05); assay: summary sentence of the description
[2] = target: human BMP9 (BMP9/Growth Differentiation Factor 2 [Homo sapiens], NP_057288) (human) (UniProt Q9UK05); assay: ELISA binding assay
[3] = target: human BMP9 (BMP9/Growth Differentiation Factor 2 [Homo sapiens], NP_057288) (human) (UniProt Q9UK05); assay: summary of Example 11

Chains of the proteins cited; added tags and fusions are not shown. Lines headed by an entry give the natural chain unless they say otherwise; changes in a name come on top.
UniProt Q9UK05: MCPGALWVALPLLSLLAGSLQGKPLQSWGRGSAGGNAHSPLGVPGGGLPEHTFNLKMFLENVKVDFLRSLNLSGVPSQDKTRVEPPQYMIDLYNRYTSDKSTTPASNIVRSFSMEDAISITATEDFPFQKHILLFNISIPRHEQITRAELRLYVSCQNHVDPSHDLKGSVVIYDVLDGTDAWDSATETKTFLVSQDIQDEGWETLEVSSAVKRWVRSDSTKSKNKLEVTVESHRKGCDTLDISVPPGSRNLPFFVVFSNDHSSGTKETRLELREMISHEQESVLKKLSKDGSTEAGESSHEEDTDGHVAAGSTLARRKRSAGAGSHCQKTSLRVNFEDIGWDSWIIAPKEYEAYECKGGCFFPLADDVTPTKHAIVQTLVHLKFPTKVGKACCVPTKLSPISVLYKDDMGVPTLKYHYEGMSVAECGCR

Binder | binding [1] | binding [2] | binding [3]
Antibody BMP9-2: MOR022962 (antibody, human IgG1, kappa, V domains shown) VH: QVQLLESGGGLVQPGGSLRLSCAASGFTFSSYAMSWVRQAPGKGLEWVSITLGTGHTHYADSVKGRFTISRDNSKNTLYLQMNSLRAEDTAVYYCARGSYIIWSALDYWGQGTLVTVSS VL: DIQMTQSPSSLSASVGDRVTITCRASQDIRSYLNWYQQKPGKAPKLLIYDASNLQSGVPSRFSGSGSGTDFTLTISSLQPEDFATYYCQQSDTSPLTFGQGTKVEIKR | binds | binds | binds
Antibody BMP9-1: AM0100 (antibody, human IgG1, kappa, V domains shown) VH: QVQLVQSGAEVKKPGASVKVSCKASGYTFTRYWMHWVRQAPGQGLEWMGEINPSQGGTNYNEKFKSRVTMTVDKSISTAYMELSRLRSDDTAVYYCAIGSNYGGLVYWGQGTLVTVSS VL: EIVLTQSPATLSLSPGERATLSCRASESLDNYGISFMNWFQQKPGQAPRFLIYAASNQGSGIPARFSGSGSGTDFTLTISSLQPEDTAVYFCQQSKEVPRTFGGGTKVEIKR | binds |  | binds
Antibody BMP9-3: MOR023795 (antibody, human IgG1, lambda, V domains shown) VH: EVQLVQSGAEVKKPGESLKISCKGSGYSFTTYWIGWVRQMPGKGLEWMGIIYPEGSYTTYSPSFQGQVTISADKSISTAYLQWSSLKASDTAMYYCARGKRVDASSFDYWGQGTLVTVSS VL: QSVLTQPPSVSGAPGQRVTISCSGSSSNIGDNYVSWYQQLPGTAPKLLIYRNNKRPSGVPDRFSGSKSGTSASLAITGLQAEDEADYYCSSTDKEHLVFGGGTKLTVLG | binds |  | binds
Antibody BMP9-4: AM4405 (antibody, human IgG1, kappa, V domains shown) VH: QVQLVQSGAEVKKPGASVKVSCKASGYTFRSYNMHWVRQAPGQGLEWMGLIYPGNAVTSYSQKFKDRVTMTVDKSTSTAYMELSSLRSEDTAVYYCAKDDYFRGGSYAMDYWGQGTTVTVSS VL: EIVLTQSPDFQSVTPKEKVTITCRASQSIRNNLHWYQQKPDQSPKLLIKYASQSIRGVPSRFSGSGSGTDFTLTINSLEAEDAATYYCQQSHSWPYTFGGGTKVEIKR | binds |  | binds
Antibody BMP9-5: AM1900 (antibody, human IgG1, kappa, V domains shown) VH: QVQLVQSGAEVKKPGASVKVSCKASGYTFTRYWMHWVRQAPGQGLEWMGEINPSQGGTNYNEKFKSRVTMTVDKSISTAYMELSRLRSDDTAVYYCAIGANYGGLVYWGQGTLVTVSS VL: EIVLTQSPATLSLSPGERATLSCRASESLDNYGISFMNWFQQKPGQAPRFLIYAASNQGSGIPARFSGSGSGTDFTLTISSLQPEDTAVYFCQQSKEVPRTFGGGTKVEIKR | binds |  | binds
Antibody BMP9-6: MOR022965 (antibody, human IgG1, kappa, V domains shown) VH: QVQLVQSGAEVKKPGSSVKVSCKASGGTFSSYAISWVRQAPGQGLEWMGHIIPHWGHARYAQKFQGRVTITADESTSTAYMELSSLRSEDTAVYYCARSASSLPHFHWFDYWGQGTLVTVSS VL: DIQMTQSPSSLSASVGDRVTITCRASQDINNYLNWYQQKPGKAPKLLIYAASRLQSGVPSRFSGSGSGTDFTLTISSLQPEDFATYYCQQRDTTPWTFGQGTKVEIKR | binds |  | binds
Antibody BMP9-7: MOR023787 (antibody, human IgG1, lambda, V domains shown) VH: QVQLVESGGGLVKPGGSLRLSCAASGFTFSSAWMSWVRQAPGKGLEWVGHIKSKTYGGTIDYAAPVKGRFTISRDDSKNTLYLQMNSLKTEDTAVYYCARVGGYYGYGYAFAYWGQGTLVTVSS VL: SYELTQPLSVSVALGQTARITCSGDNIGDKYVSWYQQKPGQAPVLVIYDDNKRPSGIPERFSGSNSGNTATLTISRAQAGDEADYYCSSTASKSFNVFGGGTKLTVLG | binds |  | binds
Antibody BMP9-8: MOR023793 (antibody, human IgG1, kappa, V domains shown) VH: QVQLVQSGAEVKKPGASVKVSCKASGYTFTSYYMNWVRQAPGQGLEWMGWINPVQGNTNYAQKFQGRVTMTRDTSISTAYMELSRLRSEDTAVYYCARNYFDVWGQGTLVTVSS VL: DIQMTQSPSSLSASVGDRVTITCRASQTISNFLAWYQQKPGKAPKLLIYAASNLQSGVPSRFSGSGSGTDFTLTISSLQPEDFAVYYCQQLYAESITFGQGTKVEIKR | binds |  | binds
Antibody BMP9-9: MOR023796 (antibody, human IgG1, lambda, V domains shown) VH: QVQLVQSGAEVKKPGSSVKVSCKASGGTFSDYAIHWVRQAPGQGLEWMGGIIPFFGTAYYAQKFQGRVTITADESTSTAYMELSSLRSEDTAVYYCARRIVSDSVAVQYRHAFDPWGQGTLVTVSS VL: QSVLTQPPSVSGAPGQRVTISCSGSSSNIGSNYVYWYQQLPGTAPKLLIYGNNNRPSGVPDRFSGSKSGTSASLAITGLQAEDEADYYCNAWDTKAYVWVFGGGTKLTVLG | binds |  | binds

From US20160355583A1
